Data as given in PubChem BioAssay AID1224830 (NIAID, 2016).
Shown is one part, drawn at random, of about 18,000 reagents tested. Over the whole deposit, about 2,900 (16%) were called active. 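Calls are made per well; low scores hint the gene aids the LPS response, high scores that it dampens it.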 Unmarked entries are inactive. Repeated entries: four replicate wells of each siRNA pool.

Aim: 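Host factors that control LPS-induced TNF expression in human macrophages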 (primary screen)
Cell system: human THP-1 monocytic leukaemia cells, TNF dual-luciferase reporter clone, PMA-differentiated to macrophage-like cells
Reagent: siRNA pool against human genes, 50 nM
Time to read-out: LPS for 4 h, given about 3 days after siRNA transfection
Challenge: bacterial LPS (TLR4 ligand), 10 ng/ml
Read-out: 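TNF firefly reporter luminescence divided by renilla, normalised to the plate median, then turned into a robust z-score for each replicate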
Direction: TNF reporter robust z-score: higher = stronger TNF reporter response to LPS
Hit rule: 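a well is active when its z-score exceeds 2.8 or falls below -1.5; control wells carry no call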

CNIH3 — TNF reporter robust z-score = -0.75
CNIH3 — TNF reporter robust z-score = -0.45
CNIH3 — TNF reporter robust z-score = -0.06
CNIH3 — TNF reporter robust z-score = -0.09
FCSK — TNF reporter robust z-score = -0.79
FCSK — TNF reporter robust z-score = -1.02
FCSK — TNF reporter robust z-score = -1.17
FCSK — TNF reporter robust z-score = 0.11
WAC — TNF reporter robust z-score = 2.6
WAC — TNF reporter robust z-score = 3.38 (active)
WAC — TNF reporter robust z-score = 2.59
WAC — TNF reporter robust z-score = 1.74
YBX1 — TNF reporter robust z-score = -1.37
YBX1 — TNF reporter robust z-score = 0.01
YBX1 — TNF reporter robust z-score = -1.05
YBX1 — TNF reporter robust z-score = -0.86
DNAAF1 — TNF reporter robust z-score = 0.78
DNAAF1 — TNF reporter robust z-score = -1.14
DNAAF1 — TNF reporter robust z-score = -1.08
DNAAF1 — TNF reporter robust z-score = -1.21
DNAAF1 — TNF reporter robust z-score = 0.85
DNAAF1 — TNF reporter robust z-score = -0.73
DNAAF1 — TNF reporter robust z-score = 1.33
DNAAF1 — TNF reporter robust z-score = 2.33
RASSF6 — TNF reporter robust z-score = -0.41
RASSF6 — TNF reporter robust z-score = -0.02
RASSF6 — TNF reporter robust z-score = 0.13
RASSF6 — TNF reporter robust z-score = 0.24
CUL3 — TNF reporter robust z-score = 0.32
CUL3 — TNF reporter robust z-score = 0.84
CUL3 — TNF reporter robust z-score = 4.61 (active)
CUL3 — TNF reporter robust z-score = 2.93 (active)
ZNG1F — TNF reporter robust z-score = 1.47
ZNG1F — TNF reporter robust z-score = 1.05
ZNG1F — TNF reporter robust z-score = 0.74
ZNG1F — TNF reporter robust z-score = 1.58
SH3GL1 — TNF reporter robust z-score = -0.48
SH3GL1 — TNF reporter robust z-score = -0.93
SH3GL1 — TNF reporter robust z-score = -0.38
SH3GL1 — TNF reporter robust z-score = -0.87
CCDC18 — TNF reporter robust z-score = 1.14
CCDC18 — TNF reporter robust z-score = 1.15
CCDC18 — TNF reporter robust z-score = 1.29
CCDC18 — TNF reporter robust z-score = 1.77
IFT52 — TNF reporter robust z-score = -0.43
IFT52 — TNF reporter robust z-score = 0.27
IFT52 — TNF reporter robust z-score = 0.04
